The text below walks through data of paper PMC6796902.

The chains behind the UniProt entries cited, without tags or fusion partners.
UniProt Q03164: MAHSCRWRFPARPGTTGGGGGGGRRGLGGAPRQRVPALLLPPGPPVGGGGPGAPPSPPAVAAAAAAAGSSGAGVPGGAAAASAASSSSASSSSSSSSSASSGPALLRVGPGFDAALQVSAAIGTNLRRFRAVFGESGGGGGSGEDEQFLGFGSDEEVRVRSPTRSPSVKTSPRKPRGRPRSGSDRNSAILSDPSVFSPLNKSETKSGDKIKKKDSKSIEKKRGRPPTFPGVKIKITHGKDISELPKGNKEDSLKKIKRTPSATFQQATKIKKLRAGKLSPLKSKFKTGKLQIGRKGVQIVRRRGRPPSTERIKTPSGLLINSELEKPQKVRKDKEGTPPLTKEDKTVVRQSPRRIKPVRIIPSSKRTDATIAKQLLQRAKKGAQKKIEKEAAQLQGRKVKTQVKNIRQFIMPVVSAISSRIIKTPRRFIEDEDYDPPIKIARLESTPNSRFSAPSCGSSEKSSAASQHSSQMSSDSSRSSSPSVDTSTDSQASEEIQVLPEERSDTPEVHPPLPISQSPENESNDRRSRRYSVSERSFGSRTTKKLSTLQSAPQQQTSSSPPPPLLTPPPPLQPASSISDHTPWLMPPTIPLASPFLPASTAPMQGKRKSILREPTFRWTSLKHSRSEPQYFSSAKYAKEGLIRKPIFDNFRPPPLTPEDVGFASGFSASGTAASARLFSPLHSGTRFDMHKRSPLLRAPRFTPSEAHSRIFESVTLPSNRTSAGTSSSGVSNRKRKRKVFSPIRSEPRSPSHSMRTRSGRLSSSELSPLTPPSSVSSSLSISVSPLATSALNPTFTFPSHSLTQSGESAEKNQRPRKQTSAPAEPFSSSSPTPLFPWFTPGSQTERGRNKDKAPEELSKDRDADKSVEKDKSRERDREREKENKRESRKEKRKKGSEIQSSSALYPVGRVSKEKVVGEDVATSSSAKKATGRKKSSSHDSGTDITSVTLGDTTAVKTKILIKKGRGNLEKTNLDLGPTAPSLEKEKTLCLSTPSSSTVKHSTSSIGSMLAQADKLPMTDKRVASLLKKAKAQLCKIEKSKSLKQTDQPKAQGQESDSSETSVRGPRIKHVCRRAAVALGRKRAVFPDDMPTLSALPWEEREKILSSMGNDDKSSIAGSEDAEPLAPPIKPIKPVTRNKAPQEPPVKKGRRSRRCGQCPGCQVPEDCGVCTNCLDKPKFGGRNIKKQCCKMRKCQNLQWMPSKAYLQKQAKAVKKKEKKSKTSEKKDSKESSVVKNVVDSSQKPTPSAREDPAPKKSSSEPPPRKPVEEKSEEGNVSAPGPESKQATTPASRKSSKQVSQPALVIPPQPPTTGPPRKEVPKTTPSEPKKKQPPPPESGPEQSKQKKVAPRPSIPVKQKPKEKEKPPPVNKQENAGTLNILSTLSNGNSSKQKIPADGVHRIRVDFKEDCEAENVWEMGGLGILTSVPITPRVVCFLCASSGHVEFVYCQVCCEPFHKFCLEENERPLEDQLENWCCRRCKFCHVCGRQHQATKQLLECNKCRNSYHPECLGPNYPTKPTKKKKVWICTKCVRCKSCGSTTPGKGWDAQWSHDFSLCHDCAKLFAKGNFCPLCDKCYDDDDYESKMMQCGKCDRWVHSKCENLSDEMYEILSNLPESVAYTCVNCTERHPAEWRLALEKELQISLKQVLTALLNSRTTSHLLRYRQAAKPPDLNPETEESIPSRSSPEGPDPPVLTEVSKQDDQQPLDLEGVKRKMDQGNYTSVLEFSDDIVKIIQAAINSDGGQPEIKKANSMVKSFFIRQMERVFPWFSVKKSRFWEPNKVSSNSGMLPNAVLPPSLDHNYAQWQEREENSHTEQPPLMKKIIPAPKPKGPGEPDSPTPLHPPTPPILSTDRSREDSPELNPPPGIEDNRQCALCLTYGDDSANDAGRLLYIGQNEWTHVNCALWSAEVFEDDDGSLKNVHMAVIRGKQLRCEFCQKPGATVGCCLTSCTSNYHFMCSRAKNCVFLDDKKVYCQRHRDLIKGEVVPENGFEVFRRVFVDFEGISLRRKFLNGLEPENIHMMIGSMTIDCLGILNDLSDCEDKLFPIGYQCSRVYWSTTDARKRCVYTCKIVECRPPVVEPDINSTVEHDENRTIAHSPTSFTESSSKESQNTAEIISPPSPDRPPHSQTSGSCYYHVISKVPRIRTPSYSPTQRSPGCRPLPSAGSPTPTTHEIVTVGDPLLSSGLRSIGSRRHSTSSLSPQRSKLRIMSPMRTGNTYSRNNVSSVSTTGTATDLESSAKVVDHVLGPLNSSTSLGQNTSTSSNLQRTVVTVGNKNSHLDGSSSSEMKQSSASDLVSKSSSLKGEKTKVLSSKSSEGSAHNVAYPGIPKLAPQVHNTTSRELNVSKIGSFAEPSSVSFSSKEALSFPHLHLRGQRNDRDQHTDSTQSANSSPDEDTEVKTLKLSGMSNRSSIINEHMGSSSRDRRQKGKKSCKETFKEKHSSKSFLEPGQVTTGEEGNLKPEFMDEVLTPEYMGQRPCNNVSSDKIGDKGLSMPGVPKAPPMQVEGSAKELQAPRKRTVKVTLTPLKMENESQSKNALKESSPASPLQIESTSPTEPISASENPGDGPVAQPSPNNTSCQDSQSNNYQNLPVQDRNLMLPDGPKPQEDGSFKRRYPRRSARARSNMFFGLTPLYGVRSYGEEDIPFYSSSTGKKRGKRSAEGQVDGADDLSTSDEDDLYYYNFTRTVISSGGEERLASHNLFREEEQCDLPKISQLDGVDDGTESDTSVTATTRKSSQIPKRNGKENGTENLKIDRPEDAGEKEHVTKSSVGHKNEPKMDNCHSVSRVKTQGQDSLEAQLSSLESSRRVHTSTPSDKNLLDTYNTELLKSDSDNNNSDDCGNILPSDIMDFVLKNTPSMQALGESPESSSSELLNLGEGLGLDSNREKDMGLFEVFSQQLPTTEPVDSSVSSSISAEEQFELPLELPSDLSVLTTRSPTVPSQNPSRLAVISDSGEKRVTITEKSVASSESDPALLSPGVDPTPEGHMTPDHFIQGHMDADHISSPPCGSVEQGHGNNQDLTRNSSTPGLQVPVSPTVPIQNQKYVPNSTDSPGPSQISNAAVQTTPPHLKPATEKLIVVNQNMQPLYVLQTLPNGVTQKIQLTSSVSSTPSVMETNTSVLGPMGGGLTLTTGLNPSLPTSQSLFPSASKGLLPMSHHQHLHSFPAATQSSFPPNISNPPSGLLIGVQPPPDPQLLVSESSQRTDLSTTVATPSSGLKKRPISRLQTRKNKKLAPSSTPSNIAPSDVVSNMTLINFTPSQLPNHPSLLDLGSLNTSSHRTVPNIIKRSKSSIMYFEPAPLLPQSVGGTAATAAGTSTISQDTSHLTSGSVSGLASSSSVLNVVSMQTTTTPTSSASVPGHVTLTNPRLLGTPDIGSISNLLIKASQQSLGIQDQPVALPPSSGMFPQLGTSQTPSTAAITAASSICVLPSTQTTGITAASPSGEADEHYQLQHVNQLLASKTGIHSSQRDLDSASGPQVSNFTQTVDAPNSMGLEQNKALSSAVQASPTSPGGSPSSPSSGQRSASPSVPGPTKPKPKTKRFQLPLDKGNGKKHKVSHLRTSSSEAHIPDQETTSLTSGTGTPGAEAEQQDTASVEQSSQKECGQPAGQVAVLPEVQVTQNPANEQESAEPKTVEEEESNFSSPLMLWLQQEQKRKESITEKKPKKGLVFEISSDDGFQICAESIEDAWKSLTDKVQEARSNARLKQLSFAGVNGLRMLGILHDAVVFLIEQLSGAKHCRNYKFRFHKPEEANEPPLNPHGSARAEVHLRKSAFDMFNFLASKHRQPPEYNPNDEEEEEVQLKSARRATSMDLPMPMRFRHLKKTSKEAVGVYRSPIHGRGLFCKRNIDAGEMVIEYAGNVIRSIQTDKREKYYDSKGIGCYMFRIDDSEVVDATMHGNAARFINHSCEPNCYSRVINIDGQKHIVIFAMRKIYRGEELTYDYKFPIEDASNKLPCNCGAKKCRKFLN
UniProt P67809: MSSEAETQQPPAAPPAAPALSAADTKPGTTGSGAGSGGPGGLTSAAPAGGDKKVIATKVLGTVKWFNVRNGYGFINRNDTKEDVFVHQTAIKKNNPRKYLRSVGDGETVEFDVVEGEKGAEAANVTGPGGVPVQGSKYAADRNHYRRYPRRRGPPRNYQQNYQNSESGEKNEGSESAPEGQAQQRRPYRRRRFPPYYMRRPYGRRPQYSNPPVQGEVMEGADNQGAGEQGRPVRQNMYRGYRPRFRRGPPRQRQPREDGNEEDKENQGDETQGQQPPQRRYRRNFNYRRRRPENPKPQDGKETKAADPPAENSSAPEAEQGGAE

Results are given in words; binding and its absence hold for the method and conditions named. Binding seen in cells or lysates may run through a third protein. Some binding calls cover weakened binding; strength is not graded here.

The target in assay [1] is mixed-lineage leukemia (MLL) protein (human (endogenous in 293T)) (UniProt Q03164). The experiment in a line: co-IP; total lysates of 293T cells, immunoprecipitation with anti-MLL antibodies, immunoblots of copurified endogenous proteins. On the technique in general: A western blot detects proteins with antibodies after separation by electrophoresis.
Assay [2] addresses MLL (human mixed-lineage leukemia protein), endogenous in the cytosolic fraction of 293T cells (human (endogenous in 293T)) (UniProt Q03164). The assay can be described thus: co-IP; cytosolic fraction of 293T cells (NE-PER kit), anti-MLL antibody with Dynabeads protein G, immunoblot (Supplementary Fig. S1b).
The target in assay [3] is mixed-lineage leukemia (MLL) protein (human (endogenous in 293T)) (UniProt Q03164). The assay can be described thus: co-IP; 293T cell lysates treated with RNase A, then anti-MLL immunoprecipitation and western blots.
Assay [4] shares this target. The assay can be described thus: co-IP; cytoplasm (Supplementary Fig. S1b; details not shown).
Assay [5] shares this target. The assay can be described thus: co-IP; total lysates of 293T cells, immunoprecipitation with anti-MLL antibodies, immunoblots of copurified endogenous proteins. This is another data set of the same source.
In assay [6] the target is Mll (mouse mixed-lineage leukemia protein), endogenous in MEF cells (mouse (endogenous in MEF)) (UniProt P55200). The experiment in a line: co-IP; total lysate of MEF cells, anti-Mll antibody with Dynabeads protein G at 4 °C overnight, 4 washes in lysis buffer, immunoblot; IgG as control (Supplementary Fig. S1a; untreated lanes of Fig. S2f; Dcp1a and Edc3 also after RNase A).

For the molecule YB-1 (from UniProt P67809 1-324), the binding entry in assay [1] is “binds”.

B1: EDC3 (human), endogenous in 293T cells (protein, UniProt Q96F86 1-508)
chain: MATDWLGSIVSINCGDSLGVYQGRVSAVDQVSQTISLTRPFHNGVKCLVPEVTFRAGDITELKILEIPGPGDNQHFGDLHQTELGPSGAGCQVGINQNGTGKFVKKPASSSSAPQNIPKRTDVKSQDVAVSPQQQQCSKSYVDRHMESLSQSKSFRRRHNSWSSSSRHPNQATPKKSGLKNGQMKNKDDECFGDDIEEIPDTDFDFEGNLALFDKAAVFEEIDTYERRSGTRSRGIPNERPTRYRHDENILESEPIVYRRIIVPHNVSKEFCTDSGLVVPSISYELHKKLLSVAEKHGLTLERRLEMTGVCASQMALTLLGGPNRLNPKNVHQRPTVALLCGPHVKGAQGISCGRHLANHDVQVILFLPNFVKMLESITNELSLFSKTQGQQVSSLKDLPTSPVDLVINCLDCPENVFLRDQPWYKAAVAWANQNRAPVLSIDPPVHEVEQGIDAKWSLALGLPLPLGEHAGRIYLCDIGIPQQVFQEVGINYHSPFGCKFVIPLHSA
Turning to B1, the binding entry in assay [2] is “binds”.

B2: EDC3 (protein, UniProt Q96F86 1-508)
chain: B1 chain
For the molecule B2, the binding entry in assay [3], in assay [4] and in assay [5] was “binds” in each case.

B3: EDC4 (human), endogenous in 293T cells (protein, UniProt Q6P2E9 1-1401)
chain: MASCASIDIEDATQHLRDILKLDRPAGGPSAESPRPSSAYNGDLNGLLVPDPLCSGDSTSANKTGLRTMPPINLQEKQVICLSGDDSSTCIGILAKEVEIVASSDSSISSKARGSNKVKIQPVAKYDWEQKYYYGNLIAVSNSFLAYAIRAANNGSAMVRVISVSTSERTLLKGFTGSVADLAFAHLNSPQLACLDEAGNLFVWRLALVNGKIQEEILVHIRQPEGTPLNHFRRIIWCPFIPEESEDCCEESSPTVALLHEDRAEVWDLDMLRSSHSTWPVDVSQIKQGFIVVKGHSTCLSEGALSPDGTVLATASHDGYVKFWQIYIEGQDEPRCLHEWKPHDGRPLSCLLFCDNHKKQDPDVPFWRFLITGADQNRELKMWCTVSWTCLQTIRFSPDIFSSVSVPPSLKVCLDLSAEYLILSDVQRKVLYVMELLQNQEEGHACFSSISEFLLTHPVLSFGIQVVSRCRLRHTEVLPAEEENDSLGADGTHGAGAMESAAGVLIKLFCVHTKALQDVQIRFQPQLNPDVVAPLPTHTAHEDFTFGESRPELGSEGLGSAAHGSQPDLRRIVELPAPADFLSLSSETKPKLMTPDAFMTPSASLQQITASPSSSSSGSSSSSSSSSSSLTAVSAMSSTSAVDPSLTRPPEELTLSPKLQLDGSLTMSSSGSLQASPRGLLPGLLPAPADKLTPKGPGQVPTATSALSLELQEVEPLGLPQASPSRTRSPDVISSASTALSQDIPEIASEALSRGFGSSAPEGLEPDSMASAASALHLLSPRPRPGPELGPQLGLDGGPGDGDRHNTPSLLEAALTQEASTPDSQVWPTAPDITRETCSTLAESPRNGLQEKHKSLAFHRPPYHLLQQRDSQDASAEQSDHDDEVASLASASGGFGTKVPAPRLPAKDWKTKGSPRTSPKLKRKSKKDDGDAAMGSRLTEHQVAEPPEDWPALIWQQQRELAELRHSQEELLQRLCTQLEGLQSTVTGHVERALETRHEQEQRRLERALAEGQQRGGQLQEQLTQQLSQALSSAVAGRLERSIRDEIKKTVPPCVSRSLEPMAGQLSNSVATKLTAVEGSMKENISKLLKSKNLTDAIARAAADTLQGPMQAAYREAFQSVVLPAFEKSCQAMFQQINDSFRLGTQEYLQQLESHMKSRKAREQEAREPVLAQLRGLVSTLQSATEQMAATVAGSVRAEVQHQLHVAVGSLQESILAQVQRIVKGEVSVALKEQQAAVTSSIMQAMRSAAGTPVPSAHLDCQAQQAHILQLLQQGHLNQAFQQALTAADLNLVLYVCETVDPAQVFGQPPCPLSQPVLLSLIQQLASDLGTRTDLKLSYLEEAVMHLDHSDPITRDHMGSVMAQVRQKLFQFLQAEPHNSLGKAARRLSLMLHGLVTPSLP
B3: the binding result in assay [2] is given as “binds”.

B4: EDC4 (protein, UniProt Q6P2E9 1-1401)
chain: B3 chain
In the case of B4, the binding entry in assay [4] and in assay [5] was “binds” in each case.

B5: Dcp1a (mouse), endogenous in MEF cells (protein, UniProt Q91YD3 1-602)
chain: MALSCSTVRPRRRGSALRSKMELLSRAEQEMSLAALKQHDPYITSIADLTGQVALYTFCPKANQWEKTDIEGTLFVYRRSASPYHGFTIVNRLNMHNLVEPVNKDLEFQLHEPFLLYRNASLSIYSIWFYDKNDCHRIAKLMADVVEEETRRSQQAARDKQSPSQANGCSDQRPIDILEMLSRAKDEYERNQMGGSNISSPGLQPSTQLSNLGSTETLEETPSGSQDKSAPSGHKHLTVEELFGTSLPKEQPTAMGLESEDTDKLLGDASQKEPSSFLPFPFEQSGGAPQSENLGIHSAAHHTVQPEVSTPVLITPASIAQSGDKHPPSYTLPLSPVLSPTLPAEAPTTQVPHLPRNSTMIQAVKTTPRQKSPLLNQPVPELSHSSLVASQSPFRAPVSLANPAGTALPSVDLLQKLRLTPQHDQIQAQPLGKGTMAPSFSSAAGQLATPESFIEPSSKTAAARAAVSASLSNMVLAPTLQSMQQNQDPEVFSQPKVLPSAIPIAGSPLVPATTTAVSSVLLSPSVFQQTVPRAADLERKASSPSPLTVGTAESQRKPSIILSKSQLQDTLIHLIKNDSSFLSTLHAVYLQVLTKNKDNHNL
B5: in assay [6], the binding result is given as “binds”.

B6: Edc3 (mouse), endogenous in MEF cells (protein, UniProt Q8K2D3 1-508)
chain: MAMDWLGSIVSINCGDSLGVYQGRVSAVDQVSQTISLTRPFHNGVKCLVPEVTFRAGDITELKILEIPGPGDNQQVGDLHQTELGPSGVGYQMSISQNGTGKVVKKPASSSSAPQSIPKRTDVKSQDVAISPQQQQCSKSYVDRHMESLSQSKSFRRRHNSWSSSSRHPNQATPKKSGLKNGQMKNKDDECFGDDIEELPDTDFDFEGNLALFDKAAVFEEIDTYERRSGSRSRGVPNERPARYRHDENILESEPIVYRRITVPHSVSKEFCTDSGLVVPSVSYELHKKLLSVAEKHGLTLERRLEMTGVCASQMALTLLGGPNRLNPKNVHQRPTVALLCGPHVKGAQGISCGRHLANHDVQVILFLPNFVKMLESITNELSLFSKTQGQQVSSLRDLPASPVDLVINCLDCPENAFLRDQPWYKAAVAWANQNRAPVLSIDPPVHEVEQGIDAKWSLALGLPLPLGEHAGRVYLCDIGIPQQVFQEVGINYHSPFGCKFVIPLHSA
Consider B6, for which, in assay [6], the binding entry is “binds”.
